PMC12811313
No constants are given. Whether binding was seen depends on the method and setting. Binding seen in cells or lysates may run through a third protein. A yes stands for co-enrichment or nearness to the bait. Other partners may have been found.

The chains behind the UniProt entries cited, without tags or fusion partners.
UniProt O00161: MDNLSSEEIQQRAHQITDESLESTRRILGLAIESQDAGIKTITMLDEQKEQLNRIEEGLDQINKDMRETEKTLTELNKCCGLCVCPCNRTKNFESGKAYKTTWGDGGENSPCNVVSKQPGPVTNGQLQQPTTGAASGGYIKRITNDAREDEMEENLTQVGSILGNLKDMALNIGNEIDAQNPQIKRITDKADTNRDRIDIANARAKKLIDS
UniProt P19474: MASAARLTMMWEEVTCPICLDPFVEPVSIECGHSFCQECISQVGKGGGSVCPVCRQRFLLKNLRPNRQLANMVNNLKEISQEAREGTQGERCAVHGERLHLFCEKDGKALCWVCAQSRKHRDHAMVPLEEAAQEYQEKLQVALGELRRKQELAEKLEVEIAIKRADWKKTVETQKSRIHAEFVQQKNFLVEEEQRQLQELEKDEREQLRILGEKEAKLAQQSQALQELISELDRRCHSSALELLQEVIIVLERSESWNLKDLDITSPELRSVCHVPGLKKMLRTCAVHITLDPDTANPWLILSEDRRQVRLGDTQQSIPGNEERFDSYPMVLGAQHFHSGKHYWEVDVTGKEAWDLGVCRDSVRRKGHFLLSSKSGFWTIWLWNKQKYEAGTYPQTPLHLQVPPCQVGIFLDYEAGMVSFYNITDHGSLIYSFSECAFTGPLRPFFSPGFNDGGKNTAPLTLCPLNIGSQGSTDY

Columns and labels:
[1] = biological target: Synaptosomal-associated protein 23 (SNAP23) (human (endogenous in SW620 and HT29)) (UniProt O00161); assay: affinity purification with mass spectrometry; immunoprecipitated fractions of TFAM and of SNAP23 from SW620 cells analysed by mass spectrometry
[2] = biological target: T1, mitochondrial transcription factor A (TFAM) (human (endogenous in SW620 and HT29)) (UniProt Q00059); assay: as above
T1 sequence: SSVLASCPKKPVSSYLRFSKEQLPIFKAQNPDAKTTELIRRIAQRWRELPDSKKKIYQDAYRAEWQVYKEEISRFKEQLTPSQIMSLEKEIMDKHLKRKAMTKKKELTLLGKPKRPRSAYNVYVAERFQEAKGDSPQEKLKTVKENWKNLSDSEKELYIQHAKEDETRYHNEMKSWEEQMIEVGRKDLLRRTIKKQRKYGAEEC

Substance: E3 ubiquitin ligase Trim21 (from UniProt P19474 1-475)
- binding [1]: binds
- binding [2]: binds
